Results are given in words; binding and its absence hold for the method and conditions named. Some results given as binding are weak or reduced against the parent protein; the word gives no strength. For some of these results: Sequences can lack the tags named with a protein.
How the values were obtained:
[1] = molecular target: T1, human IGFBP7 recombinant protein (human) (UniProt Q16270); experiment: ELISA
T1 sequence (chain, biotinylated with EZ-LINK NHS-PEG4 biotin in the BLI assays (sites not stated)): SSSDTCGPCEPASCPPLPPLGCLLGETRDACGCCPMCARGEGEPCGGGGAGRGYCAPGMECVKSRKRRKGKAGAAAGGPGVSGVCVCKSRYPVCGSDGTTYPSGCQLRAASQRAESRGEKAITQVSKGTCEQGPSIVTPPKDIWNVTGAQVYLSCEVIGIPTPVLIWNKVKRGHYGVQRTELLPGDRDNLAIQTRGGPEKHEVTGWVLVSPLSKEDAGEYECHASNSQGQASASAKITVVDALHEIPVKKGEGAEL

[2] = molecular target: T2, mouse IGFBP7 recombinant protein (mouse) (UniProt Q61581); experiment: ELISA
T2 sequence (biotinylated with EZ-LINK NHS-PEG4 biotin in the BLI assays (sites not stated), looked up): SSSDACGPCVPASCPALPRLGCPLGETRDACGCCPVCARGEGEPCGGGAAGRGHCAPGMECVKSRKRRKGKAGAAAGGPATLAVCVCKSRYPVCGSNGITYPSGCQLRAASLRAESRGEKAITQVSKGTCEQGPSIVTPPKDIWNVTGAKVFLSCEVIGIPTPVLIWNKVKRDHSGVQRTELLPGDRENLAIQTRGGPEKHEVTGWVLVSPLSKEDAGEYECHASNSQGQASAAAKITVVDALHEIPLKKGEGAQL

[3] = molecular target: T3, human IGFBP7 displayed on HEK293T cells (human, UniProt Q16270 27-282); experiment: flow cytometry on human IGFBP7 displaying HEK293T cells, nanobody 10 ug/ml, APC anti-HIS detection
T3 construct: domain: CD80 transmembrane domain; signal peptide stated as residues 1-26; also called hIGFBP7; hIGFBP7-HEK cells; not shown: linker; CD80 transmembrane domain
T3 sequence: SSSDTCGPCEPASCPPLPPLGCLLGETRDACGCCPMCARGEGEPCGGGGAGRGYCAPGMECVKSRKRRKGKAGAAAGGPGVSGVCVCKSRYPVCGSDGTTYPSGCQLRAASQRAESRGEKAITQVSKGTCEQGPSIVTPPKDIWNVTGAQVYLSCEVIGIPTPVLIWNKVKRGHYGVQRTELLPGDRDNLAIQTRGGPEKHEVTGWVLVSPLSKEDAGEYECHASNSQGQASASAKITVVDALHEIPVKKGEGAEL
Procedure: Human IGFBP7 and mouse IGFBP7 displaying HEK293T cells were detached by incubation with TrypLE reagents (Thermos Fisher), which preserves the integrity of IGFBP7 on the cell surface. Then the cells were incubated with anti-IGFBP7 nanobodies at 10 μg/ml for 30 minutes in 4° C. After washing by FACS buffer, the cells were incubated with APC conjugated anti-HIS antibodies (Biolegend) for 30 minutes in 4° C. After washing by FACS buffer twice, the samples were acquired in NovoCyte Flow Cytometer and analyzed by NovoExpress software.

[4] = molecular target: T4, mouse IGFBP7 displayed on cells (HEK293T or CHO-K1) (mouse) (UniProt Q61581); experiment: flow cytometry on mouse IGFBP7 displaying HEK293T cells, nanobody 10 ug/ml, APC anti-HIS detection
T4 sequence (looked up): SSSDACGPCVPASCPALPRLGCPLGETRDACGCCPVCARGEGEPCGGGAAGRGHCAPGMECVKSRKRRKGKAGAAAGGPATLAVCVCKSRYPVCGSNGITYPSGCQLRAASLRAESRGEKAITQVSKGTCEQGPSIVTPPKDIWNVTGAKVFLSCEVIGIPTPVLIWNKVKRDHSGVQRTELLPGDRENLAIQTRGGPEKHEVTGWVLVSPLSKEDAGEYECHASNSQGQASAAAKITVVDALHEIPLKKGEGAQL

[5] = molecular target: T1, human IGFBP7 recombinant protein (human); experiment: Octet epitope binning, biotinylated human IGFBP7 on streptavidin tips, antibodies at 10 ug/mL (FIG. 18)
[6] = molecular target: T4, mouse IGFBP7 displayed on cells (HEK293T or CHO-K1) (mouse); experiment: FACS on mIGFBP7-expressing CHO-K1 cells (FIG. 5)
[7] = molecular target: T4, mouse IGFBP7 displayed on cells (HEK293T or CHO-K1) (mouse); experiment: flow cytometry on mIGFBP7-HEK cells (FIG. 13)
[8] = molecular target: T1, human IGFBP7 recombinant protein (human); experiment: BLI (Octet QKe), biotinylated IGFBP7 on streptavidin biosensors (FIG. 9)
[9] = molecular target: T3, human IGFBP7 displayed on HEK293T cells; experiment: flow cytometry on hIGFBP7-HEK cells (FIG. 13)
Procedure: After washing with FACS buffer, the cells were incubated with Alexa Fluor 488 conjugated anti-mouse IgG antibody (Jackson ImmunoResearch) for 30 minutes in 4° C. After washing with FACS buffer twice, the samples were acquired in NovoCyte Flow Cytometer and analyzed by NovoExpress software.

[10] = molecular target: T2, mouse IGFBP7 recombinant protein (mouse); experiment: BLI (Octet QKe), biotinylated IGFBP7 on streptavidin biosensors (FIG. 10)

Measured: binding

B1: anti-IGFBP7 nanobody A04 (VHH)
VHH: VQLQESGGGLVQPGGSLRLSCAASGTFTINTYLWYRQPPGKQREFVAAITRGGSINYADSVKGRFTISRDNAKKTVYLQMNSLKPEDTAVYVCNIKAHPNPWGFDNDYWGQGTQVTVSS
notes: Llama nanobody expressed in E. coli as His6-tagged protein; also called A4; A4 VHH; not shown: His6 tag
binds: [1] | [2] | [3] | [4] | [5]

B2: anti-IGFBP7 nanobody Fc-fusion construct derived from A4 (Fc isotype not told) (Fc fusion, not shown: a dimerising Fc or GST)
chain: VQLQESGGGLVQPGGSLRLSCAASGTFTINTYLWYRQPPGKQREFVAAITRGGSINYADSVKGRFTISRDNAKKTVYLQMNSLKPEDTAVYVCNIKAHPNPWGFDNDYWGQGTQVTVSS
binds: [6]

B3: bispecific anti-IGFBP7 nanobody Fc-fusion construct A1D4-mIgG2a (bispecific antibody)
chain: VQLQESGGGLVQAGGSLRLSCAASGSLFAIDKWGWYRQVAGNERELVAWRYSPVSINYGDSVKGRFTVSGDSSRKRVYLQMNSLKPDDTAVYRCAAVISGAWYWGQGTQVTVSSVQLQESGGGLVQTGGSLRLSCAASGRSFTFSSYAMGWFRHAPGKEREFLTAITWSGDYTYYTDSVKGRSTISRDNAKNTVYLQLNNLKPEDTAVYYCAAKFSQVSAFFATVSEYEYWGQGTQVTVSS
binds: [7] | [8] | [9] | [10]
